# Assay results as given in the supplement of paper PMC12067093, “Discovery and optimisation of a covalent ligand for TRIM25 and its application to targeted protein ubiquitination” (Chemical Science, 2025).
# By UniProt entry, the sequences of proteins in these tests, tags left out. Where a name states a change or a piece, a line headed by the entry shows the natural chain unless it says otherwise.
# UniProt Q9UBT2: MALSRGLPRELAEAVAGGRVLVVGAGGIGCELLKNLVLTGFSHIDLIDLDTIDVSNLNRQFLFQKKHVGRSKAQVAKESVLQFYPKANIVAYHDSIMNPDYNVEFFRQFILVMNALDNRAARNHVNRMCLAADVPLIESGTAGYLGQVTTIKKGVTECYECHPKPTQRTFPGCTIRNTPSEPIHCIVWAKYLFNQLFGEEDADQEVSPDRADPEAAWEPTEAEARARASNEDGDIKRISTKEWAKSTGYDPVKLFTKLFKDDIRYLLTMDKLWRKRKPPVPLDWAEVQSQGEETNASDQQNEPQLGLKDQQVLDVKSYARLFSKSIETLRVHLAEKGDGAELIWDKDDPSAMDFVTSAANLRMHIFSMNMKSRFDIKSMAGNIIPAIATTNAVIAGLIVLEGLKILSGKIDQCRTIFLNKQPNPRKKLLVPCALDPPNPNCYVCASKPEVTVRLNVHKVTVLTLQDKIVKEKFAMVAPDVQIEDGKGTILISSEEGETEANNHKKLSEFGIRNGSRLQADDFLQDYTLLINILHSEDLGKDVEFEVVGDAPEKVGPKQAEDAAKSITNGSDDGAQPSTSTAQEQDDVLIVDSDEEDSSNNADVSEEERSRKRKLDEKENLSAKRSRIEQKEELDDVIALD
# UniProt Q8TBC4: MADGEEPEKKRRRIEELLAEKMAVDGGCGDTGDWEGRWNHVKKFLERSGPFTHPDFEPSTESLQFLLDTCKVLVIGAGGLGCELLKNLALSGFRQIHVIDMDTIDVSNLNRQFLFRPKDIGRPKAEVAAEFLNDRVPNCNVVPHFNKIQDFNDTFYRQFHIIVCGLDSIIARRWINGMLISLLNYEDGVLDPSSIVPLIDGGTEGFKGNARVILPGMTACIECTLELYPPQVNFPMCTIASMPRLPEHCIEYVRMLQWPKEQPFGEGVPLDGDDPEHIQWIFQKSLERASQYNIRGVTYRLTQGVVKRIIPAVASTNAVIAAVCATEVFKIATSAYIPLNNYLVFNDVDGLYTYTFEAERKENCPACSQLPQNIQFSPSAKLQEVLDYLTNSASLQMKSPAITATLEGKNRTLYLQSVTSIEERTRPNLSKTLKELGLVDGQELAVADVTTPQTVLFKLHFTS
# UniProt Q9H832: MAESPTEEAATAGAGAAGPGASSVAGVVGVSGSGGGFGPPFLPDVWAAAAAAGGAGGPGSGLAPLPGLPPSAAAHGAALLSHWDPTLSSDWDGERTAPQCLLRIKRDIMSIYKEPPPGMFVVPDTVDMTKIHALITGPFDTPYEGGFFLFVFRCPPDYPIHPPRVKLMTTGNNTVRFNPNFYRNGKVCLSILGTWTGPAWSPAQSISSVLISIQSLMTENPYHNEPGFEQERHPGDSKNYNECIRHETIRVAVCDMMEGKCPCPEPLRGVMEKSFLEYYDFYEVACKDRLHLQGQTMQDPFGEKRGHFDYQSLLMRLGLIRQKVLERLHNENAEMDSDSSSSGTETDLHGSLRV
# UniProt Q9BZL1: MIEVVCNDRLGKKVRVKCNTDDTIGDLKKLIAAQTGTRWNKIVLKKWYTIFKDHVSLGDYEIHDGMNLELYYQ
# UniProt Q6ZT12: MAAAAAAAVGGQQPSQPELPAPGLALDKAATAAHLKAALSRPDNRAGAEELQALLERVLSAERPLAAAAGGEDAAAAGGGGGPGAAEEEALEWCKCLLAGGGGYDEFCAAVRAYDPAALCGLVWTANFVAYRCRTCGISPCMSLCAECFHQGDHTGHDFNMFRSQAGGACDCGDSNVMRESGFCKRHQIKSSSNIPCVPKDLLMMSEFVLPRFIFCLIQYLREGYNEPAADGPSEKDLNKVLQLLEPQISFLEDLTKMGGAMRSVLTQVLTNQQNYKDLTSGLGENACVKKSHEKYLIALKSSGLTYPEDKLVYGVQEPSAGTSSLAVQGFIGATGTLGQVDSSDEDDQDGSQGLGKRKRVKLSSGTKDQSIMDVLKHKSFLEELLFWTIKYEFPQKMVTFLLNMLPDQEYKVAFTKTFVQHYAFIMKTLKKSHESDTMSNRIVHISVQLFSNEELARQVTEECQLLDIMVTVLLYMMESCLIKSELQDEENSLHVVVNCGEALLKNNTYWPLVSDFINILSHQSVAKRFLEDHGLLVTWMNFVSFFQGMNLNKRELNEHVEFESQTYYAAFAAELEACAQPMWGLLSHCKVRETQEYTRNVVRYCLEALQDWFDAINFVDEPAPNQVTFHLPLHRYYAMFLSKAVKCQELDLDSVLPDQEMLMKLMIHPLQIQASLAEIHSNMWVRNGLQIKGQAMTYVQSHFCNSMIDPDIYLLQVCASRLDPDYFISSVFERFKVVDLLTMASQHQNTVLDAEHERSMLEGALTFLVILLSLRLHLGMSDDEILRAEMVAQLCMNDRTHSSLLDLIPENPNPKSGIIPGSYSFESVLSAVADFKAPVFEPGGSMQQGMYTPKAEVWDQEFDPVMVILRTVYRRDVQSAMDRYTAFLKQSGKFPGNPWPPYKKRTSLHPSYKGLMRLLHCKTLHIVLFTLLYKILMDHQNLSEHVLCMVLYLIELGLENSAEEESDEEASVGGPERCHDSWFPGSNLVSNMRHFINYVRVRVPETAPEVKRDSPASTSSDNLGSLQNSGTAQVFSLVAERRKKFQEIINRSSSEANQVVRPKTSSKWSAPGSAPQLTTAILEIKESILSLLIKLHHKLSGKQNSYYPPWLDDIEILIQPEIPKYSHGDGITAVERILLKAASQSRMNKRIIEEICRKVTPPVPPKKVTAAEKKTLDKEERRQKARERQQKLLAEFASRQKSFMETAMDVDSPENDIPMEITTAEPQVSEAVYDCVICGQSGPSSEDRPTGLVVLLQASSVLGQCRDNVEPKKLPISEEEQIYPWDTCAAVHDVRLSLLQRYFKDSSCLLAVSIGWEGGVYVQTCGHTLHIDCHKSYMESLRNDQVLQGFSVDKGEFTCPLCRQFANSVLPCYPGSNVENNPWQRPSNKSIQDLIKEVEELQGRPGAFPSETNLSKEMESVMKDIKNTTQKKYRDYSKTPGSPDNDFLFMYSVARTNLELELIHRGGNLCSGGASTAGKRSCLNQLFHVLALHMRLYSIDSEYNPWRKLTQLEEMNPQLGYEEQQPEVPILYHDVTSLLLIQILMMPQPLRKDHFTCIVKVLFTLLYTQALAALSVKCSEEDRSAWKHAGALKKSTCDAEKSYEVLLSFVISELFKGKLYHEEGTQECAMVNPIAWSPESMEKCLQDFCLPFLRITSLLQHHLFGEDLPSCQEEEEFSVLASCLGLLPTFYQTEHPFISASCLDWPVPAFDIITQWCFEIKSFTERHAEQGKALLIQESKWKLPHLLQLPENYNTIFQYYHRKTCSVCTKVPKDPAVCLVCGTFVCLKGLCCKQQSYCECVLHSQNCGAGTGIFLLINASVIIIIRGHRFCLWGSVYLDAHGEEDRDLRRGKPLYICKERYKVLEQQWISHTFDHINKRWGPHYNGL
# UniProt O43396: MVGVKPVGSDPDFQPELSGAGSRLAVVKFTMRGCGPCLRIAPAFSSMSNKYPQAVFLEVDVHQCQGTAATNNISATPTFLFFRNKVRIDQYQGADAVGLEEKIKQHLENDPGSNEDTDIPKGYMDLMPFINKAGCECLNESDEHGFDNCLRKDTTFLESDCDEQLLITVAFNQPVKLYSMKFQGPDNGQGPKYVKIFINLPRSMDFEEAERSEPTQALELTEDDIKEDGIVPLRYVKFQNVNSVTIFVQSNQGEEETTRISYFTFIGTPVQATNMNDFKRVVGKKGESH
# UniProt Q8IWV8: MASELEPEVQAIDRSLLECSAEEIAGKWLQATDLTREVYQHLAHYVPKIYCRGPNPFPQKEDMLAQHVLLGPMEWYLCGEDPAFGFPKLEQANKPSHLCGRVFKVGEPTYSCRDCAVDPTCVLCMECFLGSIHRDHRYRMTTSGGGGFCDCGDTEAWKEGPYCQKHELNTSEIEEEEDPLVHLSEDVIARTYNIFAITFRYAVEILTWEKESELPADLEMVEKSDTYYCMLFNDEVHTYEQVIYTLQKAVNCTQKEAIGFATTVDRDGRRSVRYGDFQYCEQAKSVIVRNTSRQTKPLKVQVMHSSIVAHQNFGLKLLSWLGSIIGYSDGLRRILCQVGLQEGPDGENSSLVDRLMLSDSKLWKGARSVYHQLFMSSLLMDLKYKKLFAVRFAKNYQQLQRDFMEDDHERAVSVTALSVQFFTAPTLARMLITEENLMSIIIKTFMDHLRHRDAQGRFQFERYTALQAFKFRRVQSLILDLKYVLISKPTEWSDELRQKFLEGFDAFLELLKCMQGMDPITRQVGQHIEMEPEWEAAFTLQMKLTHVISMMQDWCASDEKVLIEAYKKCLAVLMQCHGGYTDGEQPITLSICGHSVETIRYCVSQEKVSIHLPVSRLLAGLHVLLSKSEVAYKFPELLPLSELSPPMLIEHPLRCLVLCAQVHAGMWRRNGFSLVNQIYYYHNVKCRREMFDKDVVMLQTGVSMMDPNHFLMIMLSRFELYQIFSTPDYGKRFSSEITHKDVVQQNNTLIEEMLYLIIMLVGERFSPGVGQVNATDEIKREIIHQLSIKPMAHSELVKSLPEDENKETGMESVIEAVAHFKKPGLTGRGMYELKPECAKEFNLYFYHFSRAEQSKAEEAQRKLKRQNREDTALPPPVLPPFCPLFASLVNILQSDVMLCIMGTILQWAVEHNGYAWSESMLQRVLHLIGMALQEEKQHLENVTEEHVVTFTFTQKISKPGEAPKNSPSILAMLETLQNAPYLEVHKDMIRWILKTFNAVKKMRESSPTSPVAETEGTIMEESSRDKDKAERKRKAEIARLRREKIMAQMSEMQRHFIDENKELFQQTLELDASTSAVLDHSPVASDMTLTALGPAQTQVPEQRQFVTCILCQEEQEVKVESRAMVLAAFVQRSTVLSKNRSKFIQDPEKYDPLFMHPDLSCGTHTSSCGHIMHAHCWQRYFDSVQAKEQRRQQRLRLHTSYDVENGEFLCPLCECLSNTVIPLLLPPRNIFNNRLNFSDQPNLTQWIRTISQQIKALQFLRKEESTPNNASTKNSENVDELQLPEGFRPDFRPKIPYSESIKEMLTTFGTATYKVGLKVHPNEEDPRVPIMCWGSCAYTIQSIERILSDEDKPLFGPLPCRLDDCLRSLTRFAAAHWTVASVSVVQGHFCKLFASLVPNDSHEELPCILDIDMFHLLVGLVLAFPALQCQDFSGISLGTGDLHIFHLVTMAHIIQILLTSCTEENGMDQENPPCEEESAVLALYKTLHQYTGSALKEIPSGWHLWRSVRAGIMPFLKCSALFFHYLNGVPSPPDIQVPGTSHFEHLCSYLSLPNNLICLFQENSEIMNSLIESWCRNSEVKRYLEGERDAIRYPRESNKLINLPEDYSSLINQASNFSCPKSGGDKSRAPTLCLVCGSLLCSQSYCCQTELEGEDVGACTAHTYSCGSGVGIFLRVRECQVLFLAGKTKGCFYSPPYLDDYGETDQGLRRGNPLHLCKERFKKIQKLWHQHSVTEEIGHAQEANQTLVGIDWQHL
# UniProt P22314: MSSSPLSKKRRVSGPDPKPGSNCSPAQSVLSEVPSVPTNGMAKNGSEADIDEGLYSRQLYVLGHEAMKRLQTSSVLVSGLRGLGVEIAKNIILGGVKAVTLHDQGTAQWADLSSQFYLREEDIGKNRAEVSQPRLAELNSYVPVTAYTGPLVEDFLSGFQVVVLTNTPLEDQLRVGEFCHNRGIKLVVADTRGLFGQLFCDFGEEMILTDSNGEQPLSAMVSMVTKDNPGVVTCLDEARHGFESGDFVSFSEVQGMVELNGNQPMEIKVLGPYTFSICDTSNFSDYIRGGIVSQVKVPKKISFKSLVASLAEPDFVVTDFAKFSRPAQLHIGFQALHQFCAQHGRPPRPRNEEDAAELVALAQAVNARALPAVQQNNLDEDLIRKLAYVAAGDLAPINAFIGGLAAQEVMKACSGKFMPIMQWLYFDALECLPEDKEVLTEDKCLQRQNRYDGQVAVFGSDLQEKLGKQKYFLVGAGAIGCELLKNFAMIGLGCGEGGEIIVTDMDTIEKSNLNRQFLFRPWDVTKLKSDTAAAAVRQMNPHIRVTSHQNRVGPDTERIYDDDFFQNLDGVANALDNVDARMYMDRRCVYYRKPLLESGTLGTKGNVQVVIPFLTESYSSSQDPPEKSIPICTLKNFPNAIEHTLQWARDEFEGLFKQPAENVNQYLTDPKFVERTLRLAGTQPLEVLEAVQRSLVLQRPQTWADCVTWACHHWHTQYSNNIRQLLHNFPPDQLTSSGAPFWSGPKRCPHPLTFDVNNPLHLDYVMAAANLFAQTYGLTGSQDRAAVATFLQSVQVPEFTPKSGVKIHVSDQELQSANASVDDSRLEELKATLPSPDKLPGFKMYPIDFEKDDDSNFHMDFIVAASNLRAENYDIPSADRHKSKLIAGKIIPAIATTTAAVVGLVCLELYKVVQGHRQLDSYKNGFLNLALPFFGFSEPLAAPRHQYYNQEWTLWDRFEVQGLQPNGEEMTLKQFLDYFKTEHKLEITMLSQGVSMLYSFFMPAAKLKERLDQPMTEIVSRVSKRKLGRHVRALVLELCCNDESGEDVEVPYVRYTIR
# This is one part of the list.
# Compound: CC1Cc2ccccc2N1C(=O)C1CCCN(C1)C(=O)CCl (mixture of isomers) [TRIM25 ligand 11 (diastereomer mixture)]
# Assay: probe-labelled cysteine peptide fold change vs DMSO (competition) (log2 fold change); higher = less target engagement (more negative = stronger competition)
# Details: THP-1, incubation time: 4 h
# 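Also: competitive chemoproteomic profiling in live THP-1 cells with an iodoacetamide desthiobiotin (IA-DTB) probe, comparing probe-labelled peptide intensities in compound-treated cells against DMSO-treated controls.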
Target,probe-labelled cysteine peptide fold change (10 µM),probe-labelled cysteine peptide fold change (50 µM)
TXNDC5_Q8NBS9_350+353_FYAPWCGHCK (UniProt Q8NBS9),-0.0864,-0.251
UBA7_P41226_552_CTHYLK (UniProt P41226),0.0123,0.0641
UACA_Q9BZF9_980_ELDTIQECIK (UniProt Q9BZF9),-0.146,-0.243
UBR4_Q5T4S7_3765_VYHQLMGHRPQLENLLCK (UniProt Q5T4S7),-0.146,-0.115
UBA2_Q9UBT2_129_MCLAADVPLIESGTAGYLGQVTTIKK (UniProt Q9UBT2),-0.0291,0.0486
UBA3_Q8TBC4_139_AEVAAEFLNDRVPNCNVVPHFNK (UniProt Q8TBC4),0.0621,0.0914
UBE4A_Q14139_465_LLTFNPTYCALK (UniProt Q14139),0.0335,-0.045
TYK2_P29597_736_NLVHGNVCGR (UniProt P29597),-0.0301,0.042
UBE2I_P63279_75_CKFEPPLFHPNVYPSGTVCLSILEEDK (UniProt P63279),-0.00777,0.167
TXNDC5_Q8NBS9_254_VDCTQHYELCSGNQVR (UniProt Q8NBS9),0.112,-0.0342
UBR4_Q5T4S7_2618+2619_QLEGDCCSFITQLVNHFWK (UniProt Q5T4S7),-0.00282,0.121
TXNRD1_Q16881_625_QLDSTIGIHPVCAEVFTTLSVTK (UniProt Q16881),0.301,0.194
UBA6_A0AVT1_231_EIFISNITQANPGIVTCLENHPHK,0.0815,-0.105
UBE2I_P63279_43_NPDGTMNLMNWECAIPGKK (UniProt P63279),-0.244,-0.211
UBA6_A0AVT1_468+473_LQNLNIFLVGCGAIGCEMLK,0.0329,0.24
UBA2_Q9UBT2_30_VLVVGAGGIGCELLK (UniProt Q9UBT2),-0.0223,-0.0553
UBE2Z_Q9H832_286_SFLEYYDFYEVACK (UniProt Q9H832),-0.0399,-0.211
UBL5_Q9BZL1_18_CNTDDTIGDLK (UniProt Q9BZL1),0.0262,0.203
TXNDC5_Q8NBS9_247+254_VDCTQHYELCSGNQVR (UniProt Q8NBS9),-0.0441,-0.16
UBR4_Q5T4S7_1724_EDGSCLALVK (UniProt Q5T4S7),0.131,0.0997
UBA3_Q8TBC4_164_QFHIIVCGLDSIIAR (UniProt Q8TBC4),-0.05,0.135
UBA52_P62987_115_CGHTNNLRPK (UniProt P62987),-0.132,-0.285
UBR3_Q6ZT12_1289_KLPISEEEQIYPWDTCAAVHDVR (UniProt Q6ZT12),0.00826,0.0925

# Reformatted as tab-separated lines: part of the list above
Target	probe-labelled cysteine peptide fold change (10 µM)	probe-labelled cysteine peptide fold change (50 µM)
TXNDC5_Q8NBS9_350+353_FYAPWCGHCK (UniProt Q8NBS9)	-0.0864	-0.251
UBA7_P41226_552_CTHYLK (UniProt P41226)	0.0123	0.0641
UACA_Q9BZF9_980_ELDTIQECIK (UniProt Q9BZF9)	-0.146	-0.243
UBR4_Q5T4S7_3765_VYHQLMGHRPQLENLLCK (UniProt Q5T4S7)	-0.146	-0.115
UBA2_Q9UBT2_129_MCLAADVPLIESGTAGYLGQVTTIKK (UniProt Q9UBT2)	-0.0291	0.0486
UBA3_Q8TBC4_139_AEVAAEFLNDRVPNCNVVPHFNK (UniProt Q8TBC4)	0.0621	0.0914
UBE4A_Q14139_465_LLTFNPTYCALK (UniProt Q14139)	0.0335	-0.045
TYK2_P29597_736_NLVHGNVCGR (UniProt P29597)	-0.0301	0.042
TXNDC5_Q8NBS9_254_VDCTQHYELCSGNQVR (UniProt Q8NBS9)	0.112	-0.0342
UBR4_Q5T4S7_2618+2619_QLEGDCCSFITQLVNHFWK (UniProt Q5T4S7)	-0.00282	0.121
TXNRD1_Q16881_625_QLDSTIGIHPVCAEVFTTLSVTK (UniProt Q16881)	0.301	0.194
UBA6_A0AVT1_231_EIFISNITQANPGIVTCLENHPHK	0.0815	-0.105
UBA6_A0AVT1_468+473_LQNLNIFLVGCGAIGCEMLK	0.0329	0.24
UBE2Z_Q9H832_286_SFLEYYDFYEVACK (UniProt Q9H832)	-0.0399	-0.211
UBA3_Q8TBC4_164_QFHIIVCGLDSIIAR (UniProt Q8TBC4)	-0.05	0.135
UBA52_P62987_115_CGHTNNLRPK (UniProt P62987)	-0.132	-0.285
UBR3_Q6ZT12_1289_KLPISEEEQIYPWDTCAAVHDVR (UniProt Q6ZT12)	0.00826	0.0925

# Continued.

Target,probe-labelled cysteine peptide fold change (10 µM),probe-labelled cysteine peptide fold change (50 µM)
UBE3D_Q7Z6J8_52_TPEGCTEIQLPAEVR (UniProt Q7Z6J8),0.0843,0.182
UBR1_Q8IWV7_574_CSTSFISSSK (UniProt Q8IWV7),0.126,0.22
TYK2_P29597_435_LTADSSHYLCHEVAPPR (UniProt P29597),0.156,0.13
UBE2M_P61081_111_CETMVYHPNIDLEGNVCLNILR (UniProt P61081),0.0742,0.0219
UBE4A_Q14139_490_ETCLIPAVQEPK (UniProt Q14139),0.0761,-0.16
UBE2O_Q9C0C9_598_VQSCPDPAVYGVVQSGDHIGR (UniProt Q9C0C9),-0.0239,-0.0974
TXNL1_O43396_149_AGCECLNESDEHGFDNCLR (UniProt O43396),0.221,-0.182
UACA_Q9BZF9_83_GNLECLNAILIHGVDITTSDTAGR (UniProt Q9BZF9),-0.271,-0.115
UBR2_Q8IWV8_112_VGEPTYSCR (UniProt Q8IWV8),-0.172,0.0842
UBA2_Q9UBT2_161_KGVTECYECHPKPTQR (UniProt Q9UBT2),-0.0473,-0.0506
UBA7_P41226_289_SLDTALLQPHVVAQSSQEVHHAHCLHQAFCALHK (UniProt P41226),-0.108,-0.293
TXNRD2_Q9NNW7_483_CGASYAQVMR (UniProt Q9NNW7),-0.00687,0.0142
TXNL1_O43396_149_AGCECLNESDEHGFDNCLRK (UniProt O43396),-0.0286,-0.106
TXNDC5_Q8NBS9_217_FFAPWCGHCK (UniProt Q8NBS9),-0.073,-0.389
UBE3C_Q15386_1018_FVTSCSRPPLLGFK (UniProt Q15386),-0.0534,0.0104
UBR4_Q5T4S7_2554_AVQCLNTSSK (UniProt Q5T4S7),-0.134,-0.237
UBR4_Q5T4S7_1900_VAMCVLSSPHGR (UniProt Q5T4S7),0.121,0.27
TXNL4B_Q9NX01_38_FGRDEDPVCLQLDDILSK (UniProt Q9NX01),0.0238,-0.167
UBE4B_O95155_448_MCSQPAVSQLLSNIR (UniProt O95155),-0.0308,-0.187
UBR5_O95071_1942_SHNDEHSDVLPVLDVCSLK (UniProt O95071),-0.586,-0.263
UBE2G1_P62253_90_NGDVCISILHEPGEDK (UniProt P62253),0.0654,0.079
UAP1L1_Q3KQV9_57_AAEACAR (UniProt Q3KQV9),0.0309,0.171
TYMP_P19971_361_ALCSGSPAER (UniProt P19971),0.00417,0.154

Target,probe-labelled cysteine peptide fold change (10 µM),probe-labelled cysteine peptide fold change (50 µM)
UBA7_P41226_223_DGDLVTFSGIEGMVELNDCDPR (UniProt P41226),0.000986,0.0382
UBE2V2_Q15819_69_VECGPKYPEAPPSVR (UniProt Q15819),-0.401,-0.226
UBN1_Q9NPG3_467_YQDECQAHTQAK (UniProt Q9NPG3),0.0929,0.00441
TXNRD1_Q16881_214_WGLGGTCVNVGCIPKK (UniProt Q16881),-0.351,-0.152
UBE2M_P61081_95+111_CETMVYHPNIDLEGNVCLNILR (UniProt P61081),0.211,-0.0298
UAP1L1_Q3KQV9_57_AAEACARPHGPPPDLAAR (UniProt Q3KQV9),-0.211,-0.0997
UBAP2_Q5T6F2_104_AINILLEGNSDTTSWETVGCK (UniProt Q5T6F2),-0.0614,0.0342
UBR2_Q8IWV8_1619_LINLPEDYSSLINQASNFSCPK (UniProt Q8IWV8),0.029,-0.0423
UBN1_Q9NPG3_837_ASPTQCHR (UniProt Q9NPG3),-0.14,-0.199
UACA_Q9BZF9_1258_KYEEVCEEVLHAK (UniProt Q9BZF9),0.0786,0.0395
UBR4_Q5T4S7_2688_IYMQMLLCPDPAVSFSCK (UniProt Q5T4S7),0.0361,0.0632
UBA1_P22314_278_VLGPYTFSICDTSNFSDYIR (UniProt P22314),-0.0898,0.00474
UBR3_Q6ZT12_1858_GKPLYICK (UniProt Q6ZT12),-0.0369,-0.0932
UBAP1_Q9NZ09_434_GENIEQILDYLFAHGQLCEK (UniProt Q9NZ09),-0.0983,-0.0923
UBLCP1_Q8WVY7_154_SCAETGVELMR (UniProt Q8WVY7),0.334,-0.043
UBE2O_Q9C0C9_585_SNDLFPVHHLDNNEFCPGDFVVDKR (UniProt Q9C0C9),-0.124,-0.0665
UBA1_P22314_494_NFAMIGLGCGEGGEIIVTDMDTIEK (UniProt P22314),-0.202,-0.103
TXNL4A_P83876_38_FGHDWDPTCMK (UniProt P83876),0.189,0.122
UBE2J2_Q8N2K1_157_VFCELFPEVVEEIK (UniProt Q8N2K1),0.0301,0.0455
TXNL1_O43396_135+137_AGCECLNESDEHGFDNCLRK (UniProt O43396),-0.163,-0.518
UBA6_A0AVT1_17_MEGSEPVAAHQGEEASCSSWGTGSTNK,-0.163,-0.534
